Results from patent publication US20050272637A1 (OREGON HEALTH AND SCIENCE UNIVERSITY, published 2005).
Results are given in words; binding and its absence hold for the method and conditions named. For some of these results: Binding seen in cells or lysates may run through a third protein. Some results given as binding are weak or reduced against the parent protein; the word gives no strength.

Amino acid sequences for entries named in this document (tags omitted). A change or cut given only in a name is not applied to a line headed by its entry.
UniProt P08069: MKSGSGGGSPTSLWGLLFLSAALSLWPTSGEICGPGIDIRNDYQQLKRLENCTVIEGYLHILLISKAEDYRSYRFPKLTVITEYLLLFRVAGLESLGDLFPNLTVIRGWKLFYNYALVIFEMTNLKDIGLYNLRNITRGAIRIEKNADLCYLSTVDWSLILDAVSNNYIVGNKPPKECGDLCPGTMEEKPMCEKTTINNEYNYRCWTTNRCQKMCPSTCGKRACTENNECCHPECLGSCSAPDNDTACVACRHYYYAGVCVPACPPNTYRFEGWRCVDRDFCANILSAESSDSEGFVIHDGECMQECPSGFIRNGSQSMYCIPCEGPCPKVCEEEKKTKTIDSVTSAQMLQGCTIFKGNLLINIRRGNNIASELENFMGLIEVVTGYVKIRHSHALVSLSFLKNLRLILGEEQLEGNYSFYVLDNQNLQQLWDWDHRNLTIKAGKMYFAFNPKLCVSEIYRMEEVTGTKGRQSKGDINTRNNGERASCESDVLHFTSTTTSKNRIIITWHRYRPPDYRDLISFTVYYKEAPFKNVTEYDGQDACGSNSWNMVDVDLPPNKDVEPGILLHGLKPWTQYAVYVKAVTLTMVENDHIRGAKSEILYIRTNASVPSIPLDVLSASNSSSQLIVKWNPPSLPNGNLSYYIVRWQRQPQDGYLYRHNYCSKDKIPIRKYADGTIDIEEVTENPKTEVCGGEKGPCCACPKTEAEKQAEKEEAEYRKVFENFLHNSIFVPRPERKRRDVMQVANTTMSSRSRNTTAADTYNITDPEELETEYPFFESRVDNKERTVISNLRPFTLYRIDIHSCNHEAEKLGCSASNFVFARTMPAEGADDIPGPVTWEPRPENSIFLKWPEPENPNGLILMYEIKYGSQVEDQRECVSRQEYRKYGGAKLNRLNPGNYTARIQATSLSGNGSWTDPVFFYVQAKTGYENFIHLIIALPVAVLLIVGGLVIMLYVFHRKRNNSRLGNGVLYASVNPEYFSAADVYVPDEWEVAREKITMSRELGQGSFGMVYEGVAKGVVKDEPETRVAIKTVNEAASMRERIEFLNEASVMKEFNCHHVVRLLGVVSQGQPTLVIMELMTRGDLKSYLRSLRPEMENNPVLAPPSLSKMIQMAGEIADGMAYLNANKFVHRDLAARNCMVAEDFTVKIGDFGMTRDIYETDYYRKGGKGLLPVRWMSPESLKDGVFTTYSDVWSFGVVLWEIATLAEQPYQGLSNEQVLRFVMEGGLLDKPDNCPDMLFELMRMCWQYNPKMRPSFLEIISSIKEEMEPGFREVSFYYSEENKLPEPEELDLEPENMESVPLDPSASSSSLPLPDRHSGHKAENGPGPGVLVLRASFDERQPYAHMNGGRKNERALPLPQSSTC
UniProt P21860: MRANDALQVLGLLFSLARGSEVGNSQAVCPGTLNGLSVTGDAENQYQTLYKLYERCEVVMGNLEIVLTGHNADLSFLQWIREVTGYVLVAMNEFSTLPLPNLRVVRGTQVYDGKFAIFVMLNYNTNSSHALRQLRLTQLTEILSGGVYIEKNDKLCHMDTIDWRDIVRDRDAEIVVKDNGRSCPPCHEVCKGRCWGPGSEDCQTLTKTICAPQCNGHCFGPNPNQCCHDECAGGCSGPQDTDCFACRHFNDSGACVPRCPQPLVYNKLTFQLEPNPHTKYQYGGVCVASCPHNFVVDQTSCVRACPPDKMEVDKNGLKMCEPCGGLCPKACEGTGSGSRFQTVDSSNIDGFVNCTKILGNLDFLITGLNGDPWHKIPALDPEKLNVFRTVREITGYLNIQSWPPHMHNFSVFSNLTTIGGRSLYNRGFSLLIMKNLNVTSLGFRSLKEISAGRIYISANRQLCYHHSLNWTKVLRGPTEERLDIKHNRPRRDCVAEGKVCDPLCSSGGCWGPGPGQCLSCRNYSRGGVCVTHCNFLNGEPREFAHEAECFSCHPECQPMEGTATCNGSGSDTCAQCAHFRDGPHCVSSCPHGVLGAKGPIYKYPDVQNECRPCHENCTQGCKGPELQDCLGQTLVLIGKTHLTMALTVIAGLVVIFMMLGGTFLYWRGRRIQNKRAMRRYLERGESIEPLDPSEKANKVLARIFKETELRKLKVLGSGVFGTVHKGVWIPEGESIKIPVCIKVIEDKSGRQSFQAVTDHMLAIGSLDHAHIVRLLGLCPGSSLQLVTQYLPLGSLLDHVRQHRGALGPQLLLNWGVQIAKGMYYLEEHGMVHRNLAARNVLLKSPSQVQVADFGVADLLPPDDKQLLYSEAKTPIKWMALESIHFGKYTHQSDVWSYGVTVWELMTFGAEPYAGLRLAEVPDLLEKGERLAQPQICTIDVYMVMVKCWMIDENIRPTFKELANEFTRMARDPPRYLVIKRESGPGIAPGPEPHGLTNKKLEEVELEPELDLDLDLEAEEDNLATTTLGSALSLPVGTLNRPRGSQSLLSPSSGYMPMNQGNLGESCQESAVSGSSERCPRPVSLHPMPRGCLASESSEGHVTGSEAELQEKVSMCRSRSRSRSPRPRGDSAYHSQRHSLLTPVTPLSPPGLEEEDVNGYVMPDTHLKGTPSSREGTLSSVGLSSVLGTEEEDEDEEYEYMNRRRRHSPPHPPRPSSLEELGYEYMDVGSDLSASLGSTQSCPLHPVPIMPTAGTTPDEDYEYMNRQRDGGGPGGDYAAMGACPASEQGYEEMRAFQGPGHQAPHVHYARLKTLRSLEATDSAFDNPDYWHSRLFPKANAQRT

Assays:
[1] = biological target: IGF-1R, insulin-like growth factor 1 receptor (human) (UniProt P08069); assay: pull-down, Western blot (FIG. 3A)
[2] = biological target: HER-3 (erbB-3), human receptor, endogenous on MCF7 breast cancer cells (human) (UniProt P21860); assay: conclusion from the pull-down assays
[3] = biological target: IGF-1R, insulin-like growth factor 1 receptor (human) (UniProt P08069); assay: conclusion from the pull-down assays
[4] = biological target: HER-3 (erbB-3), human receptor, endogenous on MCF7 breast cancer cells (human) (UniProt P21860); assay: pull-down and cell ELISA (FIGS. 3A and 3B)
[5] = biological target: IGF-1R, insulin-like growth factor 1 receptor (human) (UniProt P08069); assay: pull-down and cell ELISA (FIGS. 3A and 3B)
[6] = biological target: HER-3 (erbB-3), human receptor, endogenous on MCF7 breast cancer cells (human) (UniProt P21860); assay: Western blot analysis of Int8 binding (FIG. 4B)
[7] = biological target: purified (wild-type) HER-3 ectodomain expressed in stably transfected CHO cells (human) (UniProt P21860); assay: Western blot analysis of Int8 binding (FIG. 4C)
[8] = biological target: IGF-1R, insulin-like growth factor 1 receptor (human) (UniProt P08069); assay: herstatin ELISA of Int8 bound to hIGF-1R-3T3 cells
[9] = biological target: IGF-1R, insulin-like growth factor 1 receptor (human) (UniProt P08069); assay: pull-down and saturation binding to IGF-IR 3T3 cells
[10] = biological target: IGF-1R, insulin-like growth factor 1 receptor (human) (UniProt P08069); assay: pull-down, Int8 on Protein S Sepharose, Western blot (FIG. 1A)
[11] = biological target: IGF-1R, insulin-like growth factor 1 receptor (human) (UniProt P08069); assay: saturation binding to receptor-expressing cells, herstatin ELISA
[12] = biological target: IGF-1R, insulin-like growth factor 1 receptor (human) (UniProt P08069); assay: saturation binding to IGF-IR 3T3 cells, herstatin ELISA (FIG. 1B)
[13] = biological target: IGF-1R, insulin-like growth factor 1 receptor (human) (UniProt P08069); assay: pull-down from hIGFR-1-3T3 cell extracts, Western blot (FIG. 3A, bottom panel)

Measured: binding

B1: RBD Int8 polypeptide (intron 8-encoded receptor binding domain of herstatin, expressed as a bacterial peptide) (peptide)
chain: GTHSLPPRPAAVPVPLRMQPGPAHPVLSFLRPSWDLVSAFYSLPLAPLSPTSVPISPVSVGRGPDPDAHVAVDLSRYEG
notes: Purified from BL-21 bacteria; also called Int8 RBD polypeptide; Int8 peptide; not shown: pET 30 vector-encoded tags (His tag used for nickel purification, S-protein tag used for immobilisation)
binds: all assays above
